Experimental data from article PMC5503561.
These are yes or no findings as the source states them, for the method shown. Binding seen in cells or lysates may run through a third protein. Some entries that bind do so weakly or less than the wild type.

Protein sequences, listed by entry. Tags and fused reporters are not part of them.
UniProt P05412: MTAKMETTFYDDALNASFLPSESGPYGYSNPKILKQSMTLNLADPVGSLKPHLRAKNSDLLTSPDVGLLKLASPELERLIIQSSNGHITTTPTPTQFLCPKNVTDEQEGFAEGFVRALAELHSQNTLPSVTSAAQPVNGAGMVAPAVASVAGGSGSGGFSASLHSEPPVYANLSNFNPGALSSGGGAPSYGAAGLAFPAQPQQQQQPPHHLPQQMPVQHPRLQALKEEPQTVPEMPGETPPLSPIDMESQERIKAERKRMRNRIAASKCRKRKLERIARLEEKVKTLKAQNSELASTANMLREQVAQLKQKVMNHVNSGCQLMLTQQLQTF

Biological target: HA-c-Jun (UniProt P05412)
Test: co-IP; HEK293T cells transfected with flg-dvl, HA-c-Jun and hPar2, SLIGKV PAR2 activation (prominent after 5 h); cell nuclei; immunoprecipitation with anti-HA, Western blot with anti-flg

B1: flg-DVL1 (Disheveled 1, wt) (protein, UniProt P51141 1-695)
chain: MAETKIIYHMDEEETPYLVKLPVAPERVTLADFKNVLSNRPVHAYKFFFKSMDQDFGVVKEEIFDDNAKLPCFNGRVVSWLVLAEGAHSDAGSQGTDSHTDLPPPLERTGGIGDSRPPSFHPNVASSRDGMDNETGTESMVSHRRERARRRNRDEAARTNGHPRGDRRRDLGLPPDSASTVLSSELESSSFIDSDEEDNTSRLSSSTEQSTSSRLVRKHKCRRRKQRLRQTDRASSFSSITDSTMSLNIITVTLNMERHHFLGISIVGQSNDRGDGGIYIGSIMKGGAVAADGRIEPGDMLLQVNDVNFENMSNDDAVRVLREIVSQTGPISLTVAKCWDPTPRSYFTIPRADPVRPIDPAAWLSHTAALTGALPRYGTSPCSSAITRTSSSSLTSSVPGAPQLEEAPLTVKSDMSAIVRVMQLPDSGLEIRDRMWLKITIANAVIGADVVDWLYTHVEGFKERREARKYASSMLKHGFLRHTVNKITFSEQCYYVFGDLCSNLASLNLNSGSSGASDQDTLAPLPHPSVPWPLGQGYPYQYPGPPPCFPPAYQDPGFSCGSGSAGSQQSEGSKSSGSTRSSHRTPGREERRATGAGGSGSESDHTVPSGSGSTGWWERPVSQLSRGSSPRSQASAVAPGLPPLHPLTKAYAVVGGPPGGPPVRELAAVPPELTGSRQSFQKAMGNPCEFFVDIM
binding: binds
